This note sets out measurements from publication PMC7819943, “Rice protein-binding microarrays: a tool to detect cis-acting elements near promoter regions in rice”.

Protein sequences, listed by entry. Tags and fused reporters are not part of them.
UniProt Q0JBA9, entry or part of it: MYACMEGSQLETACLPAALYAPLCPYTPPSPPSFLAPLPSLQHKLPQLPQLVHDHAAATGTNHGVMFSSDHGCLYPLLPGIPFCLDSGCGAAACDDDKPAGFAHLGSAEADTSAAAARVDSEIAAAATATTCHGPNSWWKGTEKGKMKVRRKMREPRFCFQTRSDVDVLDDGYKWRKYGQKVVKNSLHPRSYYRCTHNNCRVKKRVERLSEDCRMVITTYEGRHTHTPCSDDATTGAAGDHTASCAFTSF

The list shows a part of the results.

This assay has as its target OsWRKY34 (Oryza sativa, UniProt Q0JBA9 1-250). The assay can be described thus: protein-binding microarray (RPBM); PBS, 2% BSA, 51.3 ng/ul salmon testes DNA, 50 uM zinc acetate, 200 nM TF, 25 C, 1 h; high values mean tight binding. The following applies: protein: recombinant; tags: N-terminal polyhistidine and DsRed monomer fusion (pET32a); label: CyDye5-dUTP incorporated in the synthesized complementary strand; 3' TTTTT single-stranded linker to array surface; dsDNA, one strand shown. In outline: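 An Axon 4000B scanner gave the binding signal as per-feature fluorescence intensity in arbitrary units. This followed washing of a custom Agilent array that had been incubated for 1 h at 25 °C with 200 nM protein in PBS, 2% BSA, salmon testes DNA and 50 µM zinc acetate. The proteins were transcription factors fused at the N-terminus to polyhistidine and DsRed, expressed in E. coli BL21-CodonPlus and purified on Ni–NTA.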
Turning to “CCCACCACCTCGTCCTCACCGTCATCGCTGGCGCTGCCTGCGGAGTCACCTAGTGCAG”, the binding signal is 8690 fluorescence intensity (a.u.).

In the case of “GTACACATGCTCACCAGAATTATTGTTTTGGCAAGTTGCACGGAGTCACCTAGTGCAG”, the binding signal is 8280 fluorescence intensity (a.u.).

For “GCTTAACCTATAGCAACCTGATTGATTTACAAGTTTTTTTCGGAGTCACCTAGTGCAG”, the binding signal is 8790 fluorescence intensity (a.u.).

“CCTTCGTTCTCACACGCATGCATATCATCACTATATATGCCGGAGTCACCTAGTGCAG”: the binding signal was 11900 fluorescence intensity (a.u.).

Regarding “GCCGTTGACTTTTTTAAACATGTTTGACCGTTCGTCTTATCGGAGTCACCTAGTGCAG”, the binding signal was 45200 fluorescence intensity (a.u.).

“ATTGTCTTCTCCATGCATCCTACCAGTTTGTGCTTATTTACGGAGTCACCTAGTGCAG”: the binding signal is 9490 fluorescence intensity (a.u.).

As for “TCCATTTCTCACTATCCTCTTGACCTCCATTTTTTTTTCCCGGAGTCACCTAGTGCAG”, the binding signal is 12300 fluorescence intensity (a.u.).

Take “CACAACCCTTCACCATTCACCCGTACCTATTTTCTTAATACGGAGTCACCTAGTGCAG”: the binding signal is 9690 fluorescence intensity (a.u.).

Take “GCATTCCTATTATATTCCTGTATTTTTTACACATGCCCTTCGGAGTCACCTAGTGCAG”: the binding signal was 9180 fluorescence intensity (a.u.).

Take “TCTCTCTGTCTCCTATCCCTGTATACTATTTTATTCTCCACGGAGTCACCTAGTGCAG”: the binding signal is 10000 fluorescence intensity (a.u.).

For “GGCCGGCGGGGAGCACAAAAGTTACAGTCTCTATATTTATCGGAGTCACCTAGTGCAG”, the binding signal was 8540 fluorescence intensity (a.u.).

Consider “GACTCCTTCCGTATTCTCCTATGGCTTCCTTGTATATCTTCGGAGTCACCTAGTGCAG”, for which the binding signal was 15600 fluorescence intensity (a.u.).

Consider “GGTGTGGGGATTCGGCTGGCCGTCGCCTTCGTCTTCGTCTCGGAGTCACCTAGTGCAG”, for which the binding signal is 14500 fluorescence intensity (a.u.).

Regarding “TCCTATGTATTATCACCCTAAAATCGTATATCCTACTTATCGGAGTCACCTAGTGCAG”, the binding signal was 10700 fluorescence intensity (a.u.).

For “CCCCGATCCACGCCGCCGCAGCCGCATCACCGTCTATTTCCGGAGTCACCTAGTGCAG”, the binding signal is 9580 fluorescence intensity (a.u.).

Take “TTGAAGCCCACCACACCACCTCACCTCGCCGCCGCCGCCACGGAGTCACCTAGTGCAG”: the binding signal was 9350 fluorescence intensity (a.u.).

Turning to “ATATGCCGCGTCTTCCTTTTTGTTAACTCAAGACTCGTGGCGGAGTCACCTAGTGCAG”, the binding signal is 12000 fluorescence intensity (a.u.).

For “TAATGCTTTGTGTCGATTCACATGTTTTATTAATTATTAACGGAGTCACCTAGTGCAG”, the binding signal was 9180 fluorescence intensity (a.u.).

For “TCTTGTTACAATCTGCTTTTTGGTTTATTTCTGTTTTCAACGGAGTCACCTAGTGCAG”, the binding signal was 8190 fluorescence intensity (a.u.).

For the sequence “TCCTACCTCCAGGATCATGGCCTACCTGGCTTTCAGCTAACGGAGTCACCTAGTGCAG”, the binding signal is 8340 fluorescence intensity (a.u.).

For the sequence “CGGAACCACTTTTTTTTTTTGTCCTTTTTCTTTTACGTAACGGAGTCACCTAGTGCAG”, the binding signal is 8750 fluorescence intensity (a.u.).

“TCCGCTTCTTTGCCCGCCGCTGCGCTCGCACTCCACTGCTCGGAGTCACCTAGTGCAG”: the binding signal was 11300 fluorescence intensity (a.u.).

For the sequence “CCCTTGCAAGAGCTCTCACACCCTTGTGCATTTAGTTTATCGGAGTCACCTAGTGCAG”, the binding signal is 10300 fluorescence intensity (a.u.).

For “GCGCGCCACGCCACGCCACGCGCCCACGCCTCGCCTCGCCCGGAGTCACCTAGTGCAG”, the binding signal is 9630 fluorescence intensity (a.u.).

With “GCCTCAGTTCACCGCCCGGCGCCGCCGCATCCATCTGCATCGGAGTCACCTAGTGCAG”, the binding signal is 9710 fluorescence intensity (a.u.).

Take “TTAATTACTCTCTCCGTTTCTAAATATTTGACACCGTTGACGGAGTCACCTAGTGCAG”: the binding signal was 8220 fluorescence intensity (a.u.).

For “TTGGCGGTACCTTCTTCGTCCCACGTCCGTATTCTATCTTCGGAGTCACCTAGTGCAG”, the binding signal was 10000 fluorescence intensity (a.u.).

Regarding “ACTTTCCTAATTGCGATTCGGCGAAGTCGCGTTATAATACCGGAGTCACCTAGTGCAG”, the binding signal was 10500 fluorescence intensity (a.u.).

In the case of “ATCCTCCACTCCTCCACATCGACCGCCTCGATCTCTCTCTCGGAGTCACCTAGTGCAG”, the binding signal is 9120 fluorescence intensity (a.u.).

With “CAGCACATACATATATACTACTACTCCAGTTCCCTAGCTACGGAGTCACCTAGTGCAG”, the binding signal is 9720 fluorescence intensity (a.u.).

In the case of “CCTCGTCTCGTCGCCCCGAAGCACCACACCACAACCACAACGGAGTCACCTAGTGCAG”, the binding signal was 8110 fluorescence intensity (a.u.).

Consider “CGTCGGTCTCTCTCTCTCGCTCTCGTCCCCGCCGCGGCGCCGGAGTCACCTAGTGCAG”, for which the binding signal was 9950 fluorescence intensity (a.u.).

Take “GCGGCCATGTGTTTACCTACTGTTCTCTCCTGCCTCCACACGGAGTCACCTAGTGCAG”: the binding signal is 8760 fluorescence intensity (a.u.).

With “GGGGCGCCGCCGTTCGTCCTGCTGCTTCCGCCGCATCCTGCGGAGTCACCTAGTGCAG”, the binding signal is 9650 fluorescence intensity (a.u.).

With “GTTGTAGTTGTGTTGCGTTCGCGTAGAAGTGGGTCGATCTCGGAGTCACCTAGTGCAG”, the binding signal was 9130 fluorescence intensity (a.u.).

On to “GGGTTCGATTCCCCGCACCTCCAATATAAAACGTTTTCTTCGGAGTCACCTAGTGCAG”, for which the binding signal is 9000 fluorescence intensity (a.u.).

Consider “CTAAACACGATTCGCGAGCCACACTCCTGCTGTCACTCGTCGGAGTCACCTAGTGCAG”, for which the binding signal is 8310 fluorescence intensity (a.u.).

For the sequence “ACTCCCTCCGTTTCACAATGTAAGTCATTCTAGCATTTCCCGGAGTCACCTAGTGCAG”, the binding signal was 9500 fluorescence intensity (a.u.).

Turning to “CTGGTGAACGGTTTGAATGAGTTTAGGGGCGAACATATCTCGGAGTCACCTAGTGCAG”, the binding signal is 8450 fluorescence intensity (a.u.).

On to “GCATTCGTTTATGTTTCCGGTCTATGTCTTGCTTAGTCACCGGAGTCACCTAGTGCAG”, for which the binding signal is 8910 fluorescence intensity (a.u.).

For the sequence “GAGATGCGGCACGGTTGGCTTGTTGACTTTTTCCGGCCCGCGGAGTCACCTAGTGCAG”, the binding signal was 17500 fluorescence intensity (a.u.).

As to “TGGGGTTGAGGGAGGGTGCCGCGGGTGGCTGGCGGAGGACCGGAGTCACCTAGTGCAG”, the binding signal is 10600 fluorescence intensity (a.u.).
